Results on three sequences are retold here after publication PMC11317151.

Protein sequences, listed by entry. Tags and fused reporters are not part of them. Residues count along the entry.
UniProt Q99708, 1-782, stated change not applied: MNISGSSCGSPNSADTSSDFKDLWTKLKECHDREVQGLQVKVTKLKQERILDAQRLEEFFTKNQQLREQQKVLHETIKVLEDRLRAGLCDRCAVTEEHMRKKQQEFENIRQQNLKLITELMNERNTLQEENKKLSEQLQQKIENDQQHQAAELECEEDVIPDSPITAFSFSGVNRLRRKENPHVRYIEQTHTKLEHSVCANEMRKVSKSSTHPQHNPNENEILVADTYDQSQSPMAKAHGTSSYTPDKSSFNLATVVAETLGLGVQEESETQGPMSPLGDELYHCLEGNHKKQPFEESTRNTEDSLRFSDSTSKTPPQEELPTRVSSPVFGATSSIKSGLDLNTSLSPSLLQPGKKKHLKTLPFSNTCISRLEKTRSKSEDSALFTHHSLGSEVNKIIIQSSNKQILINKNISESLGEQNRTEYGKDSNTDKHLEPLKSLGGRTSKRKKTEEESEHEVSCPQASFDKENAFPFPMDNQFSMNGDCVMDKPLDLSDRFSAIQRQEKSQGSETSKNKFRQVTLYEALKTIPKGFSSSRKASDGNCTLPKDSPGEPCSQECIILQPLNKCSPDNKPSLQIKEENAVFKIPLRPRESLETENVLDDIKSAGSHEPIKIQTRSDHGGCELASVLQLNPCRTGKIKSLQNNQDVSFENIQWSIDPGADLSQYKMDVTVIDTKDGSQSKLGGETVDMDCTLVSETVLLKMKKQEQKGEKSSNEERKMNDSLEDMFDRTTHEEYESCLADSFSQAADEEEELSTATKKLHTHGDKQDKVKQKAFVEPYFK
UniProt Q99708, 791-897 R839A: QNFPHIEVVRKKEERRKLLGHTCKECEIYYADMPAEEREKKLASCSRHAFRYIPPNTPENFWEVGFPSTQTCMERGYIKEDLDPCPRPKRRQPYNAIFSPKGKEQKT
UniProt Q99708, whole entry R100W: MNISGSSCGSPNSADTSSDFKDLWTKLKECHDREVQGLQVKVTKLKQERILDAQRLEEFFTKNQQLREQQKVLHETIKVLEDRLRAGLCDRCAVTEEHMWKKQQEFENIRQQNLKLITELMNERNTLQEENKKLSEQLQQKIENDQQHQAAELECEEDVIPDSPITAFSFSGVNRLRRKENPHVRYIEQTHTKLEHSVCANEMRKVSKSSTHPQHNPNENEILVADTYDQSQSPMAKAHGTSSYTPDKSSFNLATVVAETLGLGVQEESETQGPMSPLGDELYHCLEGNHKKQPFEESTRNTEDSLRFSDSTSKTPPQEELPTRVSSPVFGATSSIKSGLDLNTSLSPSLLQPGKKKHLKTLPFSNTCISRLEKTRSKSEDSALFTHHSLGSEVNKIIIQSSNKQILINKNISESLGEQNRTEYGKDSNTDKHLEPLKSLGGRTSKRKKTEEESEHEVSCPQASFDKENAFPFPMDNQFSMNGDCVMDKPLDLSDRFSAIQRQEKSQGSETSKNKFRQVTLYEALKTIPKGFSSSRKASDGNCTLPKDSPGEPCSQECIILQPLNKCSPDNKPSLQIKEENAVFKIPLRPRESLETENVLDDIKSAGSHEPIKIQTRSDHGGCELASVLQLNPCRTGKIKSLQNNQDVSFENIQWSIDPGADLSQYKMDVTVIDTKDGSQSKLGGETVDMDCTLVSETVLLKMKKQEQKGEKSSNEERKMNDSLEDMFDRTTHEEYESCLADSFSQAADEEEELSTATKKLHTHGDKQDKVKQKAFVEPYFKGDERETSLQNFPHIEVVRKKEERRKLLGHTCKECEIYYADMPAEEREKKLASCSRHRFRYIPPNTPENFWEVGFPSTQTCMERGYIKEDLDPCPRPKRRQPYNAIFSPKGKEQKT
UniProt Q99708, 542-897, stated change not applied: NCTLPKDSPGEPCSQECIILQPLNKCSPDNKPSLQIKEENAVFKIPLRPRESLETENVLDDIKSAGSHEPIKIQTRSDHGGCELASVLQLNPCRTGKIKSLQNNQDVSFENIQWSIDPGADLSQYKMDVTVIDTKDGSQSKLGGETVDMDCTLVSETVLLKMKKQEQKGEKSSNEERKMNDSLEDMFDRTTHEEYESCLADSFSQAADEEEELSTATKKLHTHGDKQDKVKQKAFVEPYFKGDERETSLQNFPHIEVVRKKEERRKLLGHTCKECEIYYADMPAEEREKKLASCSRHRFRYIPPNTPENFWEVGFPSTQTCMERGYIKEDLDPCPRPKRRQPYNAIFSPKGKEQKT
UniProt Q99708, 791-897, stated change not applied: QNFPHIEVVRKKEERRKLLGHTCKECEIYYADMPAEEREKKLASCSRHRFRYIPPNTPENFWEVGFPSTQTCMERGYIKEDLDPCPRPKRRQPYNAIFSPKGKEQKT

The target of one data set is CtIP WT (human) (UniProt Q99708). Put plainly: optical tweezers with confocal imaging. The settings on record: fork bound in trans to CtIP on trapped DNA, infrequent; C-Trap reaction: 10 mM Tris-Cl pH 7.6, 20 mM NaCl, 1 mM DTT, 0.1 mg/ml BSA; recombinant protein; residues 1-897; protein details: StrepII (cleavable); label: 5'-Cy5 on strand 2.
Data set [1] has as its target CtIP ΔC782 (human) (UniProt Q99708). Nature of the data set: fluorescence anisotropy. The following applies: partial binding at 400 nM, Kd not determined; Anisotropy: 20 mM Tris-Cl pH 8.0, 20 mM NaCl, 1 mM DTT, 5 nM HEX fork; recombinant protein; residues 1-782; protein details: StrepII; label: 5'-HEX on strand 1. (In general: In fluorescence polarisation assays a small probe gives low polarisation when free and higher when bound to something large.)

Data set [2] addresses CtIP ΔN790 R839A (human) (UniProt Q99708). Nature of the data set: fluorescence anisotropy. The settings on record: reduced vs ΔN790, label uncertain; Anisotropy: 20 mM Tris-Cl pH 8.0, 20 mM NaCl, 1 mM DTT, 5 nM HEX fork; recombinant protein; residues 791-897; protein details: StrepII; label: 5'-HEX on strand 1.
In data set [3] the target is CtIP ΔC782 (human) (UniProt Q99708). Nature of the data set: EMSA. The settings on record: detectable but severely impaired; EMSA: 20 mM Tris-Cl pH 8.0, 100 mM NaCl, 1 mM DTT, 0.1 mg/ml BSA, 5% glycerol, 2.5 nM Cy5 fork, room temperature; recombinant protein; residues 1-782; protein details: StrepII; label: 5'-Cy5 on strand 1. Background: Mobility shift assays separate free from complexed probe on a gel.

The target of data set [4] is CtIP ΔN790 R839A (human) (UniProt Q99708). Nature of the data set: EMSA. The following applies: reduced vs ΔN790; EMSA: 20 mM Tris-Cl pH 8.0, 100 mM NaCl, 1 mM DTT, 0.1 mg/ml BSA, 5% glycerol, 2.5 nM Cy5 fork, room temperature; recombinant protein; residues 791-897; protein details: StrepII; label: 5'-Cy5 on strand 1.
The next data set concerns the target CtIP R100W (human) (UniProt Q99708). Nature of the data set: EMSA. The following applies: slightly more protein needed; EMSA: 20 mM Tris-Cl pH 8.0, 100 mM NaCl, 1 mM DTT, 0.1 mg/ml BSA, 5% glycerol, 2.5 nM Cy5 fork, room temperature; recombinant protein; residues 1-897; protein details: StrepII; label: 5'-Cy5 on strand 1.
For a further data set, the target named is CtIP ΔN541b (human) (UniProt Q99708). Nature of the data set: EMSA. The following applies: EMSA: 20 mM Tris-Cl pH 8.0, 100 mM NaCl, 1 mM DTT, 0.1 mg/ml BSA, 5% glycerol, 2.5 nM Cy5 fork, room temperature; recombinant protein; residues 542-897; protein details: StrepII; label: 5'-Cy5 on strand 1.
The target of the next data set is CtIP ΔN541a (human) (UniProt Q99708). Put plainly: EMSA. The following applies: tighter than ΔN541b; EMSA: 20 mM Tris-Cl pH 8.0, 100 mM NaCl, 1 mM DTT, 0.1 mg/ml BSA, 5% glycerol, 2.5 nM Cy5 fork, room temperature; recombinant protein; residues 542-897; protein details: StrepII; label: 5'-Cy5 on strand 1.
The target of another data set is CtIP ΔN790 (human) (UniProt Q99708). Nature of the data set: EMSA. The settings on record: shifted into wells; EMSA: 20 mM Tris-Cl pH 8.0, 100 mM NaCl, 1 mM DTT, 0.1 mg/ml BSA, 5% glycerol, 2.5 nM Cy5 fork, room temperature; recombinant protein; residues 791-897; protein details: StrepII; label: 5'-Cy5 on strand 1.

For part of these data: The comparison behind a weaker result is the experiment's own reference, which may not be listed here. For part of these data: For at least one entry, the source does not settle the construct or the ends of the probe. For part of these data: At least one verdict rests on a figure or table, not on a statement of the authors.

Take “TCAGCTCATGTCATCCTCAGCACACTTGACCGGCTAGGCAGGATATCATGCATGCGGCCGCCATGGGAGGGTTAAGTAAGTAGATCAGAGA / TCTCTGATCTACTTACTTAACCCTCCCATGGCGGCCGCATGCATGATATCCTGCCTAGCCCTCAGCTCAGCTAGCCTCAGCCTACAATCACC [Cy5-Fork (C-Trap)]”: in the data set with CtIP WT (human), the binding result was “binds”.

Consider “GCTTGCTAGGACGGATCGCTCGAGGTTTTTTTTTTTTTTTTTTTT / TTTTTTTTTTTTTTTTTTTTCCTCGAGCGATCCGTCCTAGCAAGC [HEX fork]”, for which the binding result with CtIP ΔC782 (human) [1] and with CtIP ΔN790 R839A (human) [2] was “binds more weakly” each time.

Take “GCTTGCTAGGACGGATCGCTCGAGGTTTTTTTTTTTTTTTTTTTT / TTTTTTTTTTTTTTTTTTTTCCTCGAGCGATCCGTCCTAGCAAGC [Cy5 fork]”: the binding result with CtIP ΔC782 (human) [3], with CtIP ΔN790 R839A (human) [4], with CtIP R100W (human), with CtIP ΔN541b (human), with CtIP ΔN541a (human) and with CtIP ΔN790 (human) was “binds more weakly” each time.
